Paper PMC10163288
The other results are listed elsewhere or left out.

B1: il2ra_site2_3nfp_normal_mot_HHH_b2_05132_000000098_0001_38_52_H_._ems_3hC_866_af2_0001_0000300046_0000001_0 (protein)
chain: SEEEEEEIEELERQLREAVKRNDKELIREIIKLITRFVYKFADDPEAFKLYSLAEEALLLVAQKS
B2: il2ra_site2_3nfp_sap_23_mot_HHH_b1_06589_000000230_0001_37_50_H_._9e86e7d3cbcc58356358305d9d77cb6d_0001_1_af2_0001_0000200011_0000001_0_0001 (protein)
chain: SSSSSKREEYIRAAIELAREAAEQGDPEVARRILHIALLAAEDLGNEELFEEVEELLRELSSSSS
B3: il2ra_site2_3nfp_normal_mot_HHH_b1_05627_af2_000000038_0001_43_56_H_._HHH_b2_02384_0001_0000200007_0000001_0 (protein)
chain: SSSSKAEEYLEAALLALEELKEEGNEEAARKVARAALLLAENLNDEELFEEIREILEELESSSSS
B4: il2ra_site2_3nfp_sap_24_mot_HHH_b1_05437_000000005_0001_40_57_H_._efb1e6a814c01858843eeca3a22dd67d_0001_0001_0000500037_0000001_0_0001 (protein)
chain: SSSSDRAEEYLRAALALLELAVEEGNEEQIKALTEMIKLAARANRDPEVEERAEELLEEFGSSSS
B5: il2ra_site2_2erj_normal_mot_HHH_b1_07584_000000201_0001_42_55_H_._HHH_b1_06558_af2_0001_0000100001_0000001_0 (protein)
chain: SSSDEFRELAIKAHELIRKYFEEGDERYREEVEELIEELKEEGDETLVRYLELSLRHAERASSSS
B6: il2ra_site2_2erj_sap_27_mot_HHH_b1_08185_000000063_0001_41_55_H_._HHH_b1_03158_0001_0000300009_0000001_0_0001_af2pred_0001_1_af2pred_swapped (protein)
chain: SSSDAQERAREVLEEVIELLRQGNHEEAKKLLEEAREILEELGDRAAVRLIEAALRLLESLSSSS
B7: il2ra_site1_1z92_sap_5_mot_add8a691351788dd45ba4deda1838316_0001_1_000000225_0001_37_51_H_._78fdcade25ff32c2c6d5a412dc31b168_0001_1_0001_0000100004_0000001_0_00 … (protein)
chain: SSSSSKYEKSIRWALKLLESAAKTRNERLFEFVVRQIRMAVKQNNNEELEEELERLEREFRSSSS
B8: il2ra_site2_3nfp_normal_mot_HHH_b2_01155_000000159_0001_38_52_H_._c393a752425a4fe2e67a9f8335af7c62_0001_1_0001_0000300016_0000001_0 (protein)
chain: SKLEEAKEVAKKANNPEAEEIVERVEELLREGDPEKLRELLARVTNEAYERNDPELFAVIAELAF
B9: il2ra_site1_1z92_normal_mot_HHH_b1_02362_af2_000000131_0001_1_17_H_._HHH_b1_03387_0001_0001300105_0000001_0_af2pred_0001_af2pred (protein)
chain: SSSSSDYARVALRILAKLFSEFGLSEEQLRILHEVALRLAERGLSEEEIERLLEEVAEELSSSSS
B10: il2ra_site2_3nfp_normal_mot_HHH_b2_01406_000000272_0001_41_55_H_._HHH_b1_00555_af2_0001_0000500051_0000001_0 (protein)
chain: SSSSDVEELLEEVRELLERGDLHEAFQVLAEASELAARLGDPELAELVAELYKLARELARKSSSS
B11: il2ra_site2_3nfp_normal_mot_HHH_b1_02297_000000279_0001_41_58_H_._HHH_b2_06641_0001_0000200029_0000001_1 (protein)
chain: SSSSDVEEEVRELLEQAERLLEEGNPEEARQLVARAAHLAYEANDFRLFALVNEVLAKIANSSSS
B12: il2ra_site2_2erj_normal_mot_HHH_b2_05804_000000098_0001_44_58_H_._HHH_b1_07085_0001_0000200013_0000001_0 (protein)
chain: SSSSSSEQEAWERVAELLARLLHVDEEEARKLLEEAEELAEEAGDPFLRRYVQFARRAHSSSSSS
B13: il2ra_site2_2erj_normal_mot_af86707857d369f3e1d85dcabc5f9321_0001_000000201_0001_14_29_H_._HHH_b1_08035_af2_0001_0000400016_0000001_0 (protein)
chain: SSSSDELEELLEQARELIEEGDPEEALKVLREAFLLAYELGDHEAAAEIQELVELVIRSESSSSS
B14: il2ra_site1_1z92_sap_29_mot_HHH_b2_01810_000000233_0001_40_54_H_._HHH_b1_05292_af2_0001_0000500027_0000001_0_0001_af2pred_0001_af2pred (protein)
chain: TAVEEDLEEAVEKNDEELLREFIELLLRDAGDPRLVEQLLKILVKRLGLPPEVLERLRKLLEELT
B15: il2ra_site2_3nfp_normal_mot_HHH_b1_00487_000000023_0001_40_53_H_._ems_3hC_866_af2_0001_0000100003_0000001_0 (protein)
chain: SEEEEEKIERLERELREAVERNDKELIKEIIRFIAEFVREFRDDPEAQRLFMLAAEALFLVAQES
B16: il2ra_site1_2b5i_normal_mot_b0b48449b8979d840ab1151e5fe11a36_0001_af2_000000211_0001_16_31_H_._HHH_b1_06023_0001_0000300031_0000001_0_af2pred_dldesign_0_af2pred (protein)
chain: SSSSAELEEALARLRALLAAGRLDEARALAEAFADRVEETDDPEMRKAFNEMLKLLYKAESSSSS
B17: il2ra_site2_3nfp_normal_mot_HHH_b2_07007_000000117_0001_21_37_H_._ems_4hM_3289_0001_af2_0001_0000200014_0000001_0 (protein)
chain: SDEERIEEAVERASKGDEEAAEIVFEAFARALEDPEVRKIWAEVLNKFDSEEIEAVLEVLRELAS
B18: il2ra_site2_2erj_sap_29_mot_38c2a25aa59ed796a93a89c387754b2e_0001_1_000000210_0001_16_32_H_._5f42aca8a0c299d7b7d7982f3e471efe_0001_0001_0000200016_0000001_0_000 … (protein)
chain: SSSDRLHHIYKVANRLMHLLLRGNEEEAQRLIEEAREFAEKAGDEQSVENLEEVWERLEKSSSSS
B19: il2ra_site2_2erj_normal_mot_HHH_b2_07381_000000268_0001_1_20_H_._HEEHE_2349_0001_0000100001_0000001_0_af2pred_0001_af2pred (protein)
chain: SDERLLEIAARAWAERAGVPDVSVEVHNGTLEVEFTGTTERLKEVLEALRFAAEQHGLEFESSSE
B20: il2ra_site2_3nfp_sap_17_mot_HHH_b1_02226_af2_000000060_0001_38_52_H_._HHH_b2_04170_af2_0001_0000400015_0000001_0_0001 (protein)
chain: SSSSEIEEYVEAAIELLKRAVEEGDERAVEALAHLAELSAEDANNPELLEEVQRLVEEFRESSSS
B21: il2ra_site2_2erj_sap_13_mot_HHH_b2_06646_af2_000000081_0001_19_36_H_._HHH_b2_03552_0001_0000100013_0000001_0_0001 (protein)
chain: SSSSSEFEERLEELLQRIEEAIERGNERLALELITEALELLLENRDKEIAARLYRLMRELFSSSS
B22: il2ra_site2_3nfp_sap_25_mot_HHH_b1_04612_000000086_0001_22_38_H_._50caaf2482b7f8739434db268ae8d019_0001_0001_0001500077_0000001_0_0001_af2pred_0001_af2pred (protein)
chain: SSSSDVEEEVKRLIEEAERLLEEGNPEEAKKVLLRAALLASEAGDYELFALIADLLEKILHSSSS
B23: il2ra_site1_3nfp_sap_20_mot_HHH_b1_01874_af2_000000226_0001_43_56_H_._HHH_b1_01564_af2_0001_0000600017_0000001_0_0001_af2pred_0001_af2pred_1_swapped (protein)
chain: SSSSDEELEELEERIRELIERALRHRDQELAKEALKLIEELARLGDPERAKELIQLLADKSSSSS
B24: il2ra_site2_2erj_normal_mot_ems_3hC_1315_af2_000000245_0001_45_63_H_._HHH_b1_03885_af2_0001_0000400020_0000001_0_af2pred_0001_1_af2pred_swapped (protein)
chain: SSSDEEERKRLAEEIVEQLVKEYNLSEEAEKELRLSAKSAVEAGADDTSIRDFLEELARRLSSSS

Target: il2ra, P01589
Experiment: yeast display titration

Apparent Kd, inactive:
B1 no binding seen
B2 no binding seen
B3 no binding seen
B4 no binding seen
B5 no binding seen
B6 no binding seen
B7 no binding seen
B8 no binding seen
B9 no binding seen
B10 no binding seen
B11 no binding seen
B12 no binding seen
B13 no binding seen
B14 no binding seen
B15 no binding seen
B16 no binding seen
B17 no binding seen
B18 no binding seen
B19 no binding seen
B20 no binding seen
B21 no binding seen
B22 no binding seen
B23 no binding seen
B24 no binding seen

A section taken from the entries so far, for reference:
Apparent Kd, inactive:
B4 no binding seen
B5 no binding seen
B6 no binding seen
B7 no binding seen
B8 no binding seen
B9 no binding seen
B10 no binding seen
